Experimental data published in US20170189496A1, “USE OF PHOSPHORYLATION PATHWAY-RELATED FACTOR IN REGULATING FUNCTION OF REGULATORY T CELL” (Institut Pasteur of Shanghai, Chinese Academy of Sciences, priority 2012, published 2017).
For at least one compound, name, drawing or mass did not settle the structure.

Tested on: Jurkat cells stably expressing HA-FOXP3
Assay: FOXP3 protein degradation induced by PMA/LPS in Jurkat cells stably expressing HA-FOXP3 (immunoblot)
Assay type: cell-based
Conditions: PMA 25 ng/ml + LPS 1 ng/ml, 24 h; kaempferol 50 μM, PIM1 inhibitor 100 nM, PI3K inhibitor 10 μg/ml; DMSO control
Procedure: HA-FOXP3-Jurkat stable expression cells were treated with PMA (25 ng/ml) and LPS (1 ng/ml). 50 μM kaempferol, 100 nM PIM1 inhibitors (specifically of 4-[3-(4-chlorophenyl)-2,1-benzisoxazol-5-yl]-2-pyrimidinamine), and 10 μg/ml PI3K inhibitor (LY294002) were added, and DMSO as a control. Cells were collected 24 h later. The levels of FOXP3 and GAPDH were detected directly by immunoblot.
Human embryonic kidney cell line HEK293 was co-transfected with FUGW-HA-FOXP3, del 8.9 and VSV-G. Cell culture supernatants were collected 48 h and 72 h after transfection. Viruses were purified by ultracentrifugation and used to infect Jurkat E6.1 to ultimately obtain Jurkat cell lines stably expressing HA-FOXP3.
Protein samples were subjected to SDS-PAGE, and then transferred to nitrocellulose membrane, which was then sealed in TBST containing 5% nonfat dry milk or 3% bovine serum albumin for 1 h. Primary antibody was added and incubated for 1 h and then HRP-conjugated secondary antibody was added and incubated for 1 h, and results shown by exposure with ECL substrates.
Jurkat cells stably expressing HA-FOXP3 were treated with PMA (25 ng/ml) and LPS (1 ng/ml). Each sample was added 50 μM kaempferol, 100 nM PIM1 inhibitor (i.e., 4-[3-(4-chlorophenyl)-2,1-benzisoxazol-5-yl]-2-pyrimidinamine), and 10 μg/ml PI3K inhibitor (LY294002). DMSO serves as a control. Cells were collected after 24 h.

In the case of `O=c1cc(N2CCOCC2)oc2c(-c3ccccc3)cccc12` [PI3K inhibitor, LY294002], the FOXP3 protein degradation is reported as “can inhibit”.
